Source: article PMC11837972
Substitutions are numbered along the chain they refer to. Names may count otherwise. These are yes or no findings as the source states them, for the method shown. For some of these results: Binding seen in cells or lysates may run through a third protein. Some entries that bind do so weakly or less than the wild type. For some of these results: Sequences can lack the tags named with a protein.

The chains behind the UniProt entries cited, without tags or fusion partners.
UniProt P45481: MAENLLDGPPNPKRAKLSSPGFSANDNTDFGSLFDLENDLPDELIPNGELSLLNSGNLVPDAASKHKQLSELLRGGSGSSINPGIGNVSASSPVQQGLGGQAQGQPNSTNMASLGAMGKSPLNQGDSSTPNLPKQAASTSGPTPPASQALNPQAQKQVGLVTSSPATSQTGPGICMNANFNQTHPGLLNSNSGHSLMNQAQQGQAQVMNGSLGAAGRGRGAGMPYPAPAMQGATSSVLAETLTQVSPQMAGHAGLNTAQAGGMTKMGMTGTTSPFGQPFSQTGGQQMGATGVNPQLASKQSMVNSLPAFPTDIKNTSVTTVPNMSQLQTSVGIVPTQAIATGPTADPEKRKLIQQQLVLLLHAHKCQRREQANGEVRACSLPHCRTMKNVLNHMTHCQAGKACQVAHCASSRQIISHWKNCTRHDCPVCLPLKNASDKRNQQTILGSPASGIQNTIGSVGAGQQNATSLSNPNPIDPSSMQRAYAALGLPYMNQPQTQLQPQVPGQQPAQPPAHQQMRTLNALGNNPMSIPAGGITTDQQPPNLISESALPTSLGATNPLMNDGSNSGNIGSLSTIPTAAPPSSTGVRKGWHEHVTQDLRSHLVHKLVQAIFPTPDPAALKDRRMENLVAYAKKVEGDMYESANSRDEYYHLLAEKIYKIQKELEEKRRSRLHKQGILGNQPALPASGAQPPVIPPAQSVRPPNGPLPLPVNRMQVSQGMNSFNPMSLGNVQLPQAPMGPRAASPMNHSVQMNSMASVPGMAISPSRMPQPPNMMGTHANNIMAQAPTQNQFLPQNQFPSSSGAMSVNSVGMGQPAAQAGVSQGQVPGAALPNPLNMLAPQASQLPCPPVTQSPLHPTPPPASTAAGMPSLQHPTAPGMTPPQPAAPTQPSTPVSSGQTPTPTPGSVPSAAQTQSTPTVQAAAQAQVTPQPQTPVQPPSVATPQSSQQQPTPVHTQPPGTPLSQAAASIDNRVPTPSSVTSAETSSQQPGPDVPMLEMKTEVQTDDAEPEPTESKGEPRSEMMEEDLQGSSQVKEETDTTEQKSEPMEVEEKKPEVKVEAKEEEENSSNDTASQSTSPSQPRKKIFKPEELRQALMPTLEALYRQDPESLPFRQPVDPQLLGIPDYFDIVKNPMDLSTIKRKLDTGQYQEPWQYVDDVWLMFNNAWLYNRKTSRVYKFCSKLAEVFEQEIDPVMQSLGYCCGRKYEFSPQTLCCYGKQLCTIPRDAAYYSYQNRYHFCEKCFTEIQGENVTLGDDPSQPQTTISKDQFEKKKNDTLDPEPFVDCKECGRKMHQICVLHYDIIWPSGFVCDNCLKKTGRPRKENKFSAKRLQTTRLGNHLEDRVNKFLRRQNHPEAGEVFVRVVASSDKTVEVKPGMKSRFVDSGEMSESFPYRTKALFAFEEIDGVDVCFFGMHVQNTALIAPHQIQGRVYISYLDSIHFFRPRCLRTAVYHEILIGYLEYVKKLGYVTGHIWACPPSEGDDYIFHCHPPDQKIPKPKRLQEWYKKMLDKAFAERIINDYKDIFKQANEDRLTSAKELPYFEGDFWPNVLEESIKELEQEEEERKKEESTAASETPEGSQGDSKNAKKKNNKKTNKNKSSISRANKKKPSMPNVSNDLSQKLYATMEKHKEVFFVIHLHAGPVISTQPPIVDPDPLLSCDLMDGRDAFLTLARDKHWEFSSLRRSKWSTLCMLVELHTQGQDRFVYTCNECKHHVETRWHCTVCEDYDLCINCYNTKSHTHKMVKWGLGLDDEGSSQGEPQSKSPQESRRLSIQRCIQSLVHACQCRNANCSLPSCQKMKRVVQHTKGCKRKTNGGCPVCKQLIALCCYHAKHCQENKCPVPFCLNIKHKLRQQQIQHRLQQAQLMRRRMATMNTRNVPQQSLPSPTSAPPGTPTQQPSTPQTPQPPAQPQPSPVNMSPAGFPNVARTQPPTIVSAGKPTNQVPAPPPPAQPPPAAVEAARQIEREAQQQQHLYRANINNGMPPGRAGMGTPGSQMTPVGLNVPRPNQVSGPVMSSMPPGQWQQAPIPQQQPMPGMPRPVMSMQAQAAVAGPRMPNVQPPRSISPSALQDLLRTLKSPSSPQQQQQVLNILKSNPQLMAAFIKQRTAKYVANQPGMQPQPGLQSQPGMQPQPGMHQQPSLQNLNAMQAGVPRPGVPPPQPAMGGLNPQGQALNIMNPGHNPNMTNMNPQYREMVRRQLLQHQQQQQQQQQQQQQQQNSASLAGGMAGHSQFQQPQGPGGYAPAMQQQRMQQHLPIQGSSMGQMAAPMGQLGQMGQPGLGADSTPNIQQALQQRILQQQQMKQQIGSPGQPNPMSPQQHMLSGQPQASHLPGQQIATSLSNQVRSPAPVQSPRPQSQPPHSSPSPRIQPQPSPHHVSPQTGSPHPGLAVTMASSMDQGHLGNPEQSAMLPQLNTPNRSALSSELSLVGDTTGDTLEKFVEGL

T1: IRF3, endogenous in MEFs (mouse (endogenous in MEFs)) (UniProt P70671)
T1 sequence: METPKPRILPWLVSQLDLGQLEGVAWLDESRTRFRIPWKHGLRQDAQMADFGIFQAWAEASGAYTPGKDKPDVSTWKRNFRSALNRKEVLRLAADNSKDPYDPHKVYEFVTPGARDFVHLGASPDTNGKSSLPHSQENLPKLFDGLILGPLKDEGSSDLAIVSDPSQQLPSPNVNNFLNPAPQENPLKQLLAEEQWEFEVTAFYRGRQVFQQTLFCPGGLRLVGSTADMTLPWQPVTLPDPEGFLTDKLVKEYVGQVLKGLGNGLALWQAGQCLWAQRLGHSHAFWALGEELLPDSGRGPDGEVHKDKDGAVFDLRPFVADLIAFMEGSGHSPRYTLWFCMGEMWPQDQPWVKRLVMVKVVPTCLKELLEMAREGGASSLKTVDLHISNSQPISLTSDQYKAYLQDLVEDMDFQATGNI

T2: HA-IRF3 (IFN regulatory factor 3) (UniProt Q14653)
T2 sequence: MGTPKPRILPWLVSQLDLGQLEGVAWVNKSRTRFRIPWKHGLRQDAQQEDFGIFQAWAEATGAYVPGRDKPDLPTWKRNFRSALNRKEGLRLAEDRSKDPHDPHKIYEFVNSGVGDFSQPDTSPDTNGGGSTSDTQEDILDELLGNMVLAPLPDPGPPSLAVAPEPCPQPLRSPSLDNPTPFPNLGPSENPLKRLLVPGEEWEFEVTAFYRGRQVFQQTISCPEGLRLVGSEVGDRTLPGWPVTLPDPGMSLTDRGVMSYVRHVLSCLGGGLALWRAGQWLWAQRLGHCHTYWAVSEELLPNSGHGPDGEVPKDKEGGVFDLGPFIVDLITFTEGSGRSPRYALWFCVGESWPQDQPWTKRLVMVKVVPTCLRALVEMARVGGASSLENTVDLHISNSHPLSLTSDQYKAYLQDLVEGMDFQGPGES

T3: IRF3, endogenous in MEFs (mouse (endogenous in MEFs)), P70671
T3 chain: T1 sequence

B1: EGFP-PARP7 (enzyme, UniProt Q7Z3E1 1-657)
chain: MEMETTEPEPDCVVQPPSPPDDFSCQMRLSEKITPLKTCFKKKDQKRLGTGTLRSLRPILNTLLESGSLDGVFRSRNQSTDENSLHEPMMKKAMEINSSCPPAENNMSVLIPDRTNVGDQIPEAHPSTEAPERVVPIQDHSFPSETLSGTVADSTPAHFQTDLLHPVSSDVPTSPDCLDKVIDYVPGIFQENSFTIQYILDTSDKLSTELFQDKSEEASLDLVFELVNQLQYHTHQENGIEICMDFLQGTCIYGRDCLKHHTVLPYHWQIKRTTTQKWQSVFNDSQEHLERFYCNPENDRMRMKYGGQEFWADLNAMNVYETTEFDQLRRLSTPPSSNVNSIYHTVWKFFCRDHFGWREYPESVIRLIEEANSRGLKEVRFMMWNNHYILHNSFFRREIKRRPLFRSCFILLPYLQTLGGVPTQAPPPLEATSSSQIICPDGVTSANFYPETWVYMHPSQDFIQVPVSAEDKSYRIIYNLFHKTVPEFKYRILQILRVQNQFLWEKYKRKKEYMNRKMFGRDRIINERHLFHGTSQDVVDGICKHNFDPRVCGKHATMFGQGSYFAKKASYSHNFSKKSSKGVHFMFLAKVLTGRYTMGSHGMRRPPPVNPGSVTSDLYDSCVDNFFEPQIFVIFNDDQSYPYFVIQYEEVSNTVSI
B2: IRF3, endogenous in MEFs, P70671 1-419 (protein)
chain: T1 sequence
B3: EGFP-PARP7-H532A (enzyme, UniProt Q7Z3E1 1-657)
chain: B1 chain with H532A

Columns and labels:
[1] = target: T1, IRF3, endogenous in MEFs (mouse (endogenous in MEFs)); assay: co-IP; endogenous proteins; WT and Parp7-/- MEFs stimulated with DMXAA (10 μg/ml) for the indicated time points; IP with IRF3 antibody; blotted
[2] = target: T2, HA-IRF3 (IFN regulatory factor 3); assay: co-IP; HEK293T co-transfected with HA-IRF3 or HA-IRF3-5D and EGFP-PARP7 constructs; IP with HA antibody on Protein G or A Dynabeads overnight at 4°C; IP lysis buffer 20 mM Tris-HCl pH 7.4, 0.5% Nonidet-P40, 150 mM NaCl, 1 μM veliparib; blotted
[3] = target: T3, IRF3, endogenous in MEFs (mouse …); assay: native gel or EMSA; Native-PAGE of lysates of WT and Parp7-/- MEFs stimulated with DMXAA (10 μg/ml); inner buffer with 1% sodium deoxycholate; blotted for IRF3; details: remark: other sources report otherwise

| Molecule | binding [2] | further results |
| --- | --- | --- |
| CREB-binding protein (CBP), endogenous in MEFs (from UniProt P45481 1-2441) |  | binding [1]: binds |
| B1 | binds |  |
| B2 |  | binding [3]: binds |
| B3 | binds |  |
